# Source: patent US7531312B2, “Simplified biological evaluation method of natural and artificial chemicals by using DNA injury index and apparatus therefor” (TAS Project Co., Ltd., priority 2000, dated 2009)
# Some of these results come from one statement about several compounds together.
# Test system: 2′-deoxyguanosine (dG)
# Conditions: 1 and 10 mg/ml; KBrO3 30 minutes
compound,measurement,value
"OC[C@H]1O[C@H](OC[C@H]2O[C@H](O[C@]3(CO)O[C@H](CO)[C@@H](O)[C@@H]3O)[C@H](O)[C@@H](O)[C@@H]2O)[C@H](O)[C@@H](O)[C@H]1O [Raffi, raffinose]",8OHdG/dG ratio relative to the case of ultrapure water,10 to 12 times
